Laboratory results published in article PMC11671597, “The anticancer effect of metformin targets VDAC1 via ER-mitochondria interactions-mediated autophagy in HCC” (Experimental & Molecular Medicine, 2024).
Results are given in words; binding and its absence hold for the method and conditions named. Binding seen in cells or lysates may run through a third protein. Some binding calls cover weakened binding; strength is not graded here.

Amino acid sequences for entries named in this document (tags omitted). Residues count along the entry.
UniProt P21796: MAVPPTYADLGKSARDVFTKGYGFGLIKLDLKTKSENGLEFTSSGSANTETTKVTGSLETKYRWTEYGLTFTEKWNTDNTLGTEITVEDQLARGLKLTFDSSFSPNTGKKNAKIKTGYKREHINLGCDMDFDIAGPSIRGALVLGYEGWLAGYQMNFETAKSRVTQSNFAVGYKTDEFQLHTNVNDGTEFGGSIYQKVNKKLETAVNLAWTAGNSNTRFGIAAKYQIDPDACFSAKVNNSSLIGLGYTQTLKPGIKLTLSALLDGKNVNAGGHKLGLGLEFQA
UniProt P38646, residues 47-679: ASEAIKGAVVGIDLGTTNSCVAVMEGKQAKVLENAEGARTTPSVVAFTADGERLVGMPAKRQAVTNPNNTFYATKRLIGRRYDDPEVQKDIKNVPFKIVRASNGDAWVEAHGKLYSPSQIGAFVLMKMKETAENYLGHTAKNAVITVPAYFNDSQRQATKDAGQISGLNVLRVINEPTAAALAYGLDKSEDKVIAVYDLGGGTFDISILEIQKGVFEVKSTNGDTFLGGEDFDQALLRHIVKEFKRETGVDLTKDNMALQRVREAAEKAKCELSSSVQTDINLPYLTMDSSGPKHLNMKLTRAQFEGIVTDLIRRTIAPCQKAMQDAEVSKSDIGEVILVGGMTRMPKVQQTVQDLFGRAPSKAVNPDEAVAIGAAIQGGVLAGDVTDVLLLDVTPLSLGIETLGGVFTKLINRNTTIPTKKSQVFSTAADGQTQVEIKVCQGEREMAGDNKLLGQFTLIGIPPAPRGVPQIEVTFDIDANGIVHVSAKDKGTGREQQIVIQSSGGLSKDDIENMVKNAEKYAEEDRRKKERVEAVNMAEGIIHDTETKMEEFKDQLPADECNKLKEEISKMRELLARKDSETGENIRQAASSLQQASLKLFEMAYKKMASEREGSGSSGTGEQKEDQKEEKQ
UniProt O95292: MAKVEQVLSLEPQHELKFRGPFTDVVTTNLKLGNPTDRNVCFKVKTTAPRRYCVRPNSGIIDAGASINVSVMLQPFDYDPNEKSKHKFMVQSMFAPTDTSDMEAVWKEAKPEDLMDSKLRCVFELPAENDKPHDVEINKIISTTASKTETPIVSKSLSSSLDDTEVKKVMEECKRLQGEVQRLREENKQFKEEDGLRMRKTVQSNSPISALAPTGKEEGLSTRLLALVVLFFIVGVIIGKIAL

Experiments:
[1] = biological target: voltage-dependent anion channel 1 (VDAC1) (human (endogenous in HepG2)) (UniProt P21796); experiment: proximity ligation; in situ PLA (Duolink In Situ Red Starter Kit) on endogenous proteins in HepG2 cells, confocal microscopy; cells untreated or treated with MetF (0.3 mM, 4 h) or with VDAC1 knockdown for 24 h
[2] = biological target: T1, PTPIP51 (human (endogenous in HepG2)) (UniProt Q96TC7); experiment: as above
T1 sequence: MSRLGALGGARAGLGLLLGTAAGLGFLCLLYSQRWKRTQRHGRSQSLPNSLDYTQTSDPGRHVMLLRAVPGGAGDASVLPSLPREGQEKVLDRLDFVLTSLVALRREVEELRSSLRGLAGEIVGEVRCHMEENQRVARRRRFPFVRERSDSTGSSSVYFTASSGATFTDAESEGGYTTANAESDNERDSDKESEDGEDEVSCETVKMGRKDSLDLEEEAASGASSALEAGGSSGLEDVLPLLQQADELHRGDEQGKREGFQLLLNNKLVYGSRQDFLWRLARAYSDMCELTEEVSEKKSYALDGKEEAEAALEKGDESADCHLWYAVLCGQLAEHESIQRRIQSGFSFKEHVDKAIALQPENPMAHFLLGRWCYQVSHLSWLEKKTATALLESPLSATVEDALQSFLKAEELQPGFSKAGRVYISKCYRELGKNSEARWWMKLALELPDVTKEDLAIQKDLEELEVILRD

| binding [1] | binding [2] | Substance |
| --- | --- | --- |
| binds | – | GRP75 (from UniProt P38646 47-679) |
| – | binds | VAPB (from UniProt O95292 1-243) |
